This is one part of the list. Values are raw readings; no control value is given beside them.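 Primary screen: polymyxin B was added at a level permeabilizing Salmonella outer membranes while sparing inner membranes. DMSO wells, both with and without polymyxin B, established maximum growth. Plate-to-plate variation meant each plate was ranked on its own, and the lowest-OD600 compounds were selected as hits.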
Test system: Salmonella enterica serovar Typhimurium SL1344
Experiment: bacterial growth OD600 after 18 h with compound and polymyxin B; higher = more bacterial growth (less inhibition)
Settings: 50 µM, Mueller-Hinton broth

| Structure (SMILES) | bacterial growth OD600 (polymyxin B 0.75 µg/mL) | bacterial growth OD600 (polymyxin B 1 µg/mL) |
| --- | --- | --- |
| CCC(C)n1cc(C(=O)NCc2cn3cc(C)sc3n2)c(=O)c(C(=O)N2CCCCCC2)c1 (centres undefined) | 0.874 |  |
| O[C@@H]1CN(Cc2cnn(-c3cccc(Cl)c3)c2)CC[C@H]1N1CCOCC1 | 0.793 |  |
| CN(C(=O)c1ccsc1)C(Cc1ccccc1F)C1CCN(C(=O)CC2CCCC2)CC1 (centres undefined) | 0.663 |  |
| COC(=O)c1c(S(=O)(=O)Nc2cccc(F)c2)sc2c1CCN(CC=C(C)C)C2 | 0.714 |  |
| Cc1c(CN2CCOc3ccc(C4=Cc5ccccc5CC4)cc3C2)c(=O)n(-c2ccccc2)n1C | 0.001 |  |
| COCC(=O)Nc1cc(C(=O)N[C@@H]2CCCC[C@H]2c2ccccc2)cc2nc(-c3cccnc3)n(C)c12 | 0.854 |  |
| CCCS(=O)(=O)N1CCCC1C(=O)Nc1ccccc1-c1ccc(OC)cc1 (centres undefined) | 0.752 |  |
| CCC(C)NC(=O)c1cc(NC(C)=O)c2c(c1)nc(-c1ccccc1F)n2CC (centres undefined) | 0.982 |  |
| CC(C)Cc1cn[nH]c1C1CCCN(Cc2cccc3c2OCO3)C1 (centres undefined) | 0.788 |  |
| Cc1cccc(-c2cnc(C)nc2C2CCCN(C(=O)c3ccccc3C(F)(F)F)C2)c1 (centres undefined) | 0.819 |  |
| CN(C)C1CCN(C(=O)c2csc3nc(-c4ccccc4Cl)cn23)C1 (centres undefined) |  | 0.821 |
| COCCC(=O)NCc1cccnc1N1CCCC(O)C1 (centres undefined) | 0.784 |  |
| COc1ccc(CCN2CC(C(=O)NCCCN3CCOCC3)CCC2=O)cc1 (centres undefined) |  | 0.958 |
| O=C(CCOc1ccccc1)Nc1ccnn1C1CCN(C(=O)c2ccncc2)CC1 |  | 0.946 |
| CCN(Cc1nccn1C)C(=O)c1ccc(N2CCCC(COC)C2)nc1 (centres undefined) |  | 1.12 |
| COc1ccc(CC(=O)N2CCc3c(cnc(C)c3CNC(=O)c3ccc4c(c3)OCO4)C2)cc1 | 0.788 |  |
| CCOC(=O)C1(C/C=C/c2ccccc2)CCCN(Cc2cnn(C)c2C)C1 (centres undefined) |  | 0.791 |
| O[C@@H]1CN(C/C(Cl)=C/c2ccccc2)CC[C@H]1N1CCN(c2ccccn2)CC1 |  | 0.82 |
| COc1ccc(-c2nn(-c3ccccc3C)cc2CN2CCN(CCO)CC2)cc1F |  | 0.911 |

Three entries already listed, ordered by heavy-atom count, largest number first.

| Structure (SMILES) | bacterial growth OD600 (polymyxin B 0.75 µg/mL) | bacterial growth OD600 (polymyxin B 1 µg/mL) |
| --- | --- | --- |
| Cc1c(CN2CCOc3ccc(C4=Cc5ccccc5CC4)cc3C2)c(=O)n(-c2ccccc2)n1C | 0.001 |  |
| CCC(C)NC(=O)c1cc(NC(C)=O)c2c(c1)nc(-c1ccccc1F)n2CC (centres undefined) | 0.982 |  |
| CCOC(=O)C1(C/C=C/c2ccccc2)CCCN(Cc2cnn(C)c2C)C1 (centres undefined) |  | 0.791 |
